Structures can show the parent of a compound that is named as a salt. This is one part of the list. The calls rarely recur for the same compound in another form.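 Kinases, fused to nanoluciferase, were expressed in K562 cells; luminescence was measured every 4 h from 2 to 18 h as percent of control (DMSO = 100%, positive control = 0%). A time point is decreased if signal falls significantly (2 sigma). Hits were called by the authors by a rule that is not shown; the count of time points alone does not decide it.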
What was measured:
Experiment in all cases: kinase-Nluc reporter destabilization hit call (1 = scored as downregulated) (binary); higher = compound decreases kinase abundance
Details in all cases: K562, 2-18 h
RET = RET (UniProt P07949)
[1] = molecular target: RET_M918T (clone: RET_mut) (UniProt P07949)
RIOK1 = RIOK1 (UniProt Q9BRS2)
RIPK1 = RIPK1 (UniProt Q13546)
RIPK2 = RIPK2 (UniProt O43353)
ROR2 = ROR2 (UniProt Q01974)
RPS6KA1 = RPS6KA1 (UniProt Q15418)
SPHK1 = SPHK1 (UniProt Q9NYA1)
SRC = SRC (UniProt P12931)
STK24 = STK24 (UniProt Q9Y6E0)

Chains of the proteins cited; added tags and fusions are not shown. Lines headed by an entry give the natural chain unless they say otherwise; changes in a name come on top.
UniProt P07949, whole entry, looked up: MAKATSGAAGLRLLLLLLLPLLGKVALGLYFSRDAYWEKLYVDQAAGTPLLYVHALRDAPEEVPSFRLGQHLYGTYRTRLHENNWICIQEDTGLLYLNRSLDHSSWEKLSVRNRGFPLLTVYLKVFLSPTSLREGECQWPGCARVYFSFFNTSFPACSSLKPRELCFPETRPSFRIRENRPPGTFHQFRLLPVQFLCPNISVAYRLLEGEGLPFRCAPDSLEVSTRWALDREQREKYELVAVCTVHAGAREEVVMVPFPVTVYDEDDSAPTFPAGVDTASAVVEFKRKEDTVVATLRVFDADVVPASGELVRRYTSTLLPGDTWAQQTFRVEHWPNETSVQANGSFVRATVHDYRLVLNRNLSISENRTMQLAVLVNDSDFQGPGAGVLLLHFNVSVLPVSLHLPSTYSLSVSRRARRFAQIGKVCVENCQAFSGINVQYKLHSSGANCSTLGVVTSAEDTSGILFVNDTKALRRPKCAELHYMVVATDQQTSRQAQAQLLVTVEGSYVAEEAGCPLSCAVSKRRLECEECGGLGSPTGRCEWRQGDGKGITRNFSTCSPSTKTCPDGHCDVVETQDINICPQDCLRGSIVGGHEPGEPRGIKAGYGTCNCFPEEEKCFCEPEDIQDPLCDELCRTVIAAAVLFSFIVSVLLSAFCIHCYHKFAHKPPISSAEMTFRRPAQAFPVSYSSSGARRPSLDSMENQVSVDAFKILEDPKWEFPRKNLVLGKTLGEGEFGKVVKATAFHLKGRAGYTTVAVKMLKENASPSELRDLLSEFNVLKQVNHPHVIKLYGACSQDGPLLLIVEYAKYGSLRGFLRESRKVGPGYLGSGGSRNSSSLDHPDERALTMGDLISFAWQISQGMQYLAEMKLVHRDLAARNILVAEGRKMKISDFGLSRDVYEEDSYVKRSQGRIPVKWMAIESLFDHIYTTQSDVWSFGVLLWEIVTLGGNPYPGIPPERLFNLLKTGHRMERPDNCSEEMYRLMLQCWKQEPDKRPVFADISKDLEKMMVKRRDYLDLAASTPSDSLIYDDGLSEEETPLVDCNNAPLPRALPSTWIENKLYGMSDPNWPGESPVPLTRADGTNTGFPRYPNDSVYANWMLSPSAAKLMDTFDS
UniProt P07949, whole entry M918T, looked up: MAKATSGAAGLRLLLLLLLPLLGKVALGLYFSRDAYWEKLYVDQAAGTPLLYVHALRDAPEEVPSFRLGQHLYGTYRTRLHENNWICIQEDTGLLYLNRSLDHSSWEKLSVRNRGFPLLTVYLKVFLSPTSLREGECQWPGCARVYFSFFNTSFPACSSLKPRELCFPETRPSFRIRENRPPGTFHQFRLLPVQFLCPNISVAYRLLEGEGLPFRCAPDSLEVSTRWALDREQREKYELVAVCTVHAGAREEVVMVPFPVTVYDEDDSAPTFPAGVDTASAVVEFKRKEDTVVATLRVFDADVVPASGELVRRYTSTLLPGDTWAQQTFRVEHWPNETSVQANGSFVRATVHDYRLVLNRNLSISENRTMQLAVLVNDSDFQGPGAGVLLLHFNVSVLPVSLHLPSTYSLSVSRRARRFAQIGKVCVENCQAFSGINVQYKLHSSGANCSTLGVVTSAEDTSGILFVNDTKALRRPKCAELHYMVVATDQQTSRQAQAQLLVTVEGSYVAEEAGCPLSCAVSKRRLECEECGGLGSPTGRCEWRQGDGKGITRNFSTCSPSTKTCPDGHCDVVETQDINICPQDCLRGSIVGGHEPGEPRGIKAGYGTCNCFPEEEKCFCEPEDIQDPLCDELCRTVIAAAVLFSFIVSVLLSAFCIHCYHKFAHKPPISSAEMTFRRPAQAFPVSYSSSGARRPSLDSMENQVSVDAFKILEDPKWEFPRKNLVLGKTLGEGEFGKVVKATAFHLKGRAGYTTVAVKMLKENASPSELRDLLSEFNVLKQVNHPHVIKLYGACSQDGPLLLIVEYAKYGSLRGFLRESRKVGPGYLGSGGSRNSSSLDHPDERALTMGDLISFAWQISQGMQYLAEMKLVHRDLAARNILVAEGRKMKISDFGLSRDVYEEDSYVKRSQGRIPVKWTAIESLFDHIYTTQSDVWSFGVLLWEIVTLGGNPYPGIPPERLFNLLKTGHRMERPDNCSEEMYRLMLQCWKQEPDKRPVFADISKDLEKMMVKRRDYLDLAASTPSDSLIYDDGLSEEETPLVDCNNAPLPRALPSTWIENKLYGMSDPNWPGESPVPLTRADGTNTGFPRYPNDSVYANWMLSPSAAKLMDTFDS
UniProt Q9BRS2: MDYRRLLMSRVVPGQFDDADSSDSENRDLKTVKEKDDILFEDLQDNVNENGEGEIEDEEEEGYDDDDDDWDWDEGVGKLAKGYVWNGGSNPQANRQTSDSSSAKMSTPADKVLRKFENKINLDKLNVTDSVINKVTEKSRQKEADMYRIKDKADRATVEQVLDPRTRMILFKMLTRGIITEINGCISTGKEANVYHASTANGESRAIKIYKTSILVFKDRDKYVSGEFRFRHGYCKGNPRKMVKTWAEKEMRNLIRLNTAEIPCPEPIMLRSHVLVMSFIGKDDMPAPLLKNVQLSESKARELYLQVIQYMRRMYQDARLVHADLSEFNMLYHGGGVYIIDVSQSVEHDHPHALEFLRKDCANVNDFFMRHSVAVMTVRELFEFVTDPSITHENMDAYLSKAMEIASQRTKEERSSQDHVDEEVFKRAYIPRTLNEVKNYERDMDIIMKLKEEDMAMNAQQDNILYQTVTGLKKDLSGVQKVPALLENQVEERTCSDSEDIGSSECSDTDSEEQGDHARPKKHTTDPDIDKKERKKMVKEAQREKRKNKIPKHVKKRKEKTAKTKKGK
UniProt Q13546: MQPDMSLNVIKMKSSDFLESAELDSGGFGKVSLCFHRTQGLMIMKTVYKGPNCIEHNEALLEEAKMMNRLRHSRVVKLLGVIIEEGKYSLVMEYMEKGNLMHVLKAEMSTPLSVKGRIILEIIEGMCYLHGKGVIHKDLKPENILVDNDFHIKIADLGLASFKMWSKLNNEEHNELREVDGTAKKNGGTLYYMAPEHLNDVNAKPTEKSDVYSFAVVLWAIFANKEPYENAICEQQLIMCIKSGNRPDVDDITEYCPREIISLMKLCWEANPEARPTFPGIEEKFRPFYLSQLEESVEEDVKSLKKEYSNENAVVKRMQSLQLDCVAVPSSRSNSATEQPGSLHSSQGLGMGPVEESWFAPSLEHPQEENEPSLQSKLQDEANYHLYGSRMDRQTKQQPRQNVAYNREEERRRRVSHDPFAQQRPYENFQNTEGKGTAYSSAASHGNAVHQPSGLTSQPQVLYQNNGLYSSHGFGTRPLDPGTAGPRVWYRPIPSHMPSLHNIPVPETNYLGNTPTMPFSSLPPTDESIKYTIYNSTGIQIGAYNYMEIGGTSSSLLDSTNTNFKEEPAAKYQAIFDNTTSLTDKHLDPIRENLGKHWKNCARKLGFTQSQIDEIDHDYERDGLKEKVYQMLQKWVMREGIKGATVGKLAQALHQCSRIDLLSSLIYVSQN
UniProt Q01974, whole entry: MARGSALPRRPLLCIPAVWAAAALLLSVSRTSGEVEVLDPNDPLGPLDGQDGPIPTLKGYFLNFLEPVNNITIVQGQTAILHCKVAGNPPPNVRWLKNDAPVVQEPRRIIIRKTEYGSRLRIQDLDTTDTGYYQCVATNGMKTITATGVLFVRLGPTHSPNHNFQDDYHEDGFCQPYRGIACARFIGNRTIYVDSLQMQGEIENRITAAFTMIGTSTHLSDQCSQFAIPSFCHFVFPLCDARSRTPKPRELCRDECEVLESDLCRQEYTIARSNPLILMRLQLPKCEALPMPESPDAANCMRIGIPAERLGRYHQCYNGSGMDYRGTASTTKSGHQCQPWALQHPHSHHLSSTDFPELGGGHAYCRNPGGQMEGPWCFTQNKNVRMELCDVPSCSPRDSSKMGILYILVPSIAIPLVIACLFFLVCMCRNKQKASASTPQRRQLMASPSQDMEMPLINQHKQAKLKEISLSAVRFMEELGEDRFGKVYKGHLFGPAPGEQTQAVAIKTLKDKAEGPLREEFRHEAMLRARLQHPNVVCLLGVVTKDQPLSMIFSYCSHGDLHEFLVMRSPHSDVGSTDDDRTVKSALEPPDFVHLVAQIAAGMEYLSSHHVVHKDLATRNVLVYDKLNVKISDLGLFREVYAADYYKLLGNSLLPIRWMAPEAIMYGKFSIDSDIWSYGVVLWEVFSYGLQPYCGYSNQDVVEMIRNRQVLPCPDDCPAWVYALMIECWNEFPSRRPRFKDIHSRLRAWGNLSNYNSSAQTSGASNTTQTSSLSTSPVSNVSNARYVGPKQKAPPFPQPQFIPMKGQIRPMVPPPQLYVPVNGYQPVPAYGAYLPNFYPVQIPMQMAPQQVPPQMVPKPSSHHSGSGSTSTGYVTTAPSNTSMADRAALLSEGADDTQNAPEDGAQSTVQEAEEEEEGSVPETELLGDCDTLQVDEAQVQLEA
UniProt Q15418, whole entry: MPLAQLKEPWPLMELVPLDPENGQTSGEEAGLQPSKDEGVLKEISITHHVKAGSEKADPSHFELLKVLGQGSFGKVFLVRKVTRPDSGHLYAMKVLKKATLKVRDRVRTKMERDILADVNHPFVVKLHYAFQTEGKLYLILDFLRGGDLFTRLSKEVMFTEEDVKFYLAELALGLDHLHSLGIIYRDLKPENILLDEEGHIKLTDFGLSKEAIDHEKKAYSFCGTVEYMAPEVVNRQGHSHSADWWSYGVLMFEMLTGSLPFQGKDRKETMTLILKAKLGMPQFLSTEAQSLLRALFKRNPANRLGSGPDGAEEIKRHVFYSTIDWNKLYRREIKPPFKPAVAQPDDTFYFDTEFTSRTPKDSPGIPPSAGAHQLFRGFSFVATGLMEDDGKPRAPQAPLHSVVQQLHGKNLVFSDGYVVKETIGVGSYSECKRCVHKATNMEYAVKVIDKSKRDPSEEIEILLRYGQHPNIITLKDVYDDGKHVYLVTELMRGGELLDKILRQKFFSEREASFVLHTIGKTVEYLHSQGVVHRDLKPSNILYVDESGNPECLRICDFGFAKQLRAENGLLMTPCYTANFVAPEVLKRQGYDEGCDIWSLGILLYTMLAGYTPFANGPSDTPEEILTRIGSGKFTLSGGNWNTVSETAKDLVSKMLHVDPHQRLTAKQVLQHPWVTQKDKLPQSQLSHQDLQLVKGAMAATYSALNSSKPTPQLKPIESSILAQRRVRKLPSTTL
UniProt Q9NYA1, whole entry: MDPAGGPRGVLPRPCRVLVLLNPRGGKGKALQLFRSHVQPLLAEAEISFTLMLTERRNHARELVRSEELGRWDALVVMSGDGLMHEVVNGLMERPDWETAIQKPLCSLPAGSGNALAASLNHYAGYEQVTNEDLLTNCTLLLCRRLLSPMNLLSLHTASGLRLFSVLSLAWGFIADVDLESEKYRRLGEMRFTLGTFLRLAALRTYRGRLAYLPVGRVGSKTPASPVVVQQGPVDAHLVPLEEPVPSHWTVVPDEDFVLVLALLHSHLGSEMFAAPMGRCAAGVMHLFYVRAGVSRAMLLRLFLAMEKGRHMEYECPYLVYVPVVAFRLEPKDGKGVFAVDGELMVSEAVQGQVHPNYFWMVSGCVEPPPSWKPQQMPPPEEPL
UniProt Q9Y6E0: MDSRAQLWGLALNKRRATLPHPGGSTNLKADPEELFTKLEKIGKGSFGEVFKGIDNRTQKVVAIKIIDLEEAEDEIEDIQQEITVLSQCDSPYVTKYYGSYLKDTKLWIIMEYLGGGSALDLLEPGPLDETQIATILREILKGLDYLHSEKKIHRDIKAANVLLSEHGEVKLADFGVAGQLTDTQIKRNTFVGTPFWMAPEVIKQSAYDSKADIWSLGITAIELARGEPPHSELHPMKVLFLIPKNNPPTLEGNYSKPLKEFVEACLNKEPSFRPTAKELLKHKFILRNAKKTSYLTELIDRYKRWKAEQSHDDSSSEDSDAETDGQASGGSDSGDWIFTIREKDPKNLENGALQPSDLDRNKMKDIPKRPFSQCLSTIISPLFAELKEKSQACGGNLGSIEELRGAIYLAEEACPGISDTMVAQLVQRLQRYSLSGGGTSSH

Measured: kinase-Nluc reporter destabilization hit call

Cc1nc2ccc(-n3c(-c4nonc4N)nc4cnccc43)cc2[nH]1
inactive: RET; 10 µM 0 | [1]; 10 µM 0 | RIOK1; 10 µM 0 | RIPK1; 10 µM 0 | RIPK2; 10 µM 0 | ROR2; 10 µM 0 | RPS6KA1; 10 µM 0 | SPHK1; 10 µM 0 | SRC; 10 µM 0 | STK24; 10 µM 0

CC(C)NC[C@@H](C(=O)N1CCN(c2ncnc3c2[C@H](C)C[C@H]3O)CC1)c1ccc(Cl)cc1 [Ipatasertib (dihydrochloride)]
inactive: RET; 10 µM 0 | [1]; 10 µM 0 | RIOK1; 10 µM 0 | RIPK1; 10 µM 0 | RIPK2; 10 µM 0 | ROR2; 10 µM 0 | RPS6KA1; 10 µM 0 | SPHK1; 10 µM 0 | SRC; 10 µM 0 | STK24; 10 µM 0

Nc1ncnc2c1c(-c1ccc(Oc3ccccc3)cc1)nn2[C@@H]1CCCNC1
inactive: RET; 2.5 µM 0 | [1]; 2.5 µM 0 | RIOK1; 2.5 µM 0 | RIPK2; 2.5 µM 0 | ROR2; 2.5 µM 0 | RPS6KA1; 2.5 µM 0 | SPHK1; 2.5 µM 0 | SRC; 2.5 µM 0 | STK24; 2.5 µM 0
active: RIPK1; 2.5 µM 1

CCCCCCCCc1ccc(CCC(N)(CO)CO)cc1 [Fingolimod (hydrochloride)]
inactive: RET; 2.5 µM 0 | [1]; 2.5 µM 0 | RIOK1; 2.5 µM 0 | RIPK1; 2.5 µM 0 | RIPK2; 2.5 µM 0 | ROR2; 2.5 µM 0 | RPS6KA1; 2.5 µM 0 | SPHK1; 2.5 µM 0 | SRC; 2.5 µM 0 | STK24; 2.5 µM 0

COc1ncc(F)cc1CNc1ccc(Cc2c[nH]c3ncc(C)cc23)c(F)n1 [PLX5622 (hemifumarate)]
inactive: RET; 10 µM 0 | [1]; 10 µM 0 | RIOK1; 10 µM 0 | RIPK1; 10 µM 0 | RIPK2; 10 µM 0 | ROR2; 10 µM 0 | RPS6KA1; 10 µM 0 | SPHK1; 10 µM 0 | SRC; 10 µM 0 | STK24; 10 µM 0

COc1cc2nccc(Nc3cc(OC)c(OC)c(OC)c3)c2cc1OC [GAK inhibitor 49]
inactive: RET; 10 µM 0 | [1]; 10 µM 0 | RIOK1; 10 µM 0 | RIPK1; 10 µM 0 | RIPK2; 10 µM 0 | ROR2; 10 µM 0 | RPS6KA1; 10 µM 0 | SPHK1; 10 µM 0 | SRC; 10 µM 0 | STK24; 10 µM 0

CC(=O)N[C@H](Cc1ccc(O)cc1)C(=O)N[C@H](CCCN=C(N)N)C(=O)N[C@H](Cc1ccccc1)C(N)=O
inactive: RET; 10 µM 0 | [1]; 10 µM 0 | RIOK1; 10 µM 0 | RIPK1; 10 µM 0 | RIPK2; 10 µM 0 | ROR2; 10 µM 0 | RPS6KA1; 10 µM 0 | SPHK1; 10 µM 0 | SRC; 10 µM 0 | STK24; 10 µM 0

CCc1nc(C(N)=O)c(Nc2ccc(N3CCC(N4CCN(C)CC4)CC3)c(OC)c2)nc1NC1CCOCC1 [Gilteritinib]
inactive: RET; 2 µM 0 | [1]; 2 µM 0 | RIOK1; 2 µM 0 | RIPK1; 2 µM 0 | RIPK2; 2 µM 0 | ROR2; 2 µM 0 | RPS6KA1; 2 µM 0 | SPHK1; 2 µM 0 | SRC; 2 µM 0 | STK24; 2 µM 0

CNc1ncc2cc(-c3ccc(-c4cccc(C)n4)cc3Cl)c(=O)n(C[C@H]3OC[C@H](N)CO3)c2n1 [G-5555 (hydrochloride)]
inactive: RET; 10 µM 0 | [1]; 10 µM 0 | RIOK1; 10 µM 0 | RIPK1; 10 µM 0 | RIPK2; 10 µM 0 | ROR2; 10 µM 0 | RPS6KA1; 10 µM 0 | SPHK1; 10 µM 0 | SRC; 10 µM 0 | STK24; 10 µM 0

CN(C)C(=N)NC(=N)N [Metformin (hydrochloride)]
inactive: RET; 10 µM 0 | [1]; 10 µM 0 | RIOK1; 10 µM 0 | RIPK1; 10 µM 0 | RIPK2; 10 µM 0 | ROR2; 10 µM 0 | RPS6KA1; 10 µM 0 | SPHK1; 10 µM 0 | SRC; 10 µM 0 | STK24; 10 µM 0

Reprinted from the entries so far (2 entries):
CNc1ncc2cc(-c3ccc(-c4cccc(C)n4)cc3Cl)c(=O)n(C[C@H]3OC[C@H](N)CO3)c2n1 [G-5555 (hydrochloride)]
inactive: RET; 10 µM 0 | [1]; 10 µM 0 | RIOK1; 10 µM 0 | RIPK1; 10 µM 0 | RIPK2; 10 µM 0 | ROR2; 10 µM 0 | RPS6KA1; 10 µM 0 | SPHK1; 10 µM 0 | SRC; 10 µM 0 | STK24; 10 µM 0

CN(C)C(=N)NC(=N)N [Metformin (hydrochloride)]
inactive: RET; 10 µM 0 | [1]; 10 µM 0 | RIOK1; 10 µM 0 | RIPK1; 10 µM 0 | RIPK2; 10 µM 0 | ROR2; 10 µM 0 | RPS6KA1; 10 µM 0 | SPHK1; 10 µM 0 | SRC; 10 µM 0 | STK24; 10 µM 0

Next records follow.

C[C@H](CCC(=O)NCCS(=O)(=O)O)[C@H]1CC[C@H]2[C@@H]3[C@@H](O)C[C@@H]4C[C@H](O)CC[C@]4(C)[C@H]3CC[C@]12C [Tauroursodeoxycholate (dihydrate)]
inactive: RET; 10 µM 0 | [1]; 10 µM 0 | RIOK1; 10 µM 0 | RIPK1; 10 µM 0 | RIPK2; 10 µM 0 | ROR2; 10 µM 0 | RPS6KA1; 10 µM 0 | SPHK1; 10 µM 0 | SRC; 10 µM 0 | STK24; 10 µM 0

COc1ccc(S(=O)(=O)N(CCO)c2ccccc2CN(C)C/C=C/c2ccc(Cl)cc2)cc1 [KN-93 (hydrochloride)]
inactive: RET; 2.5 µM 0 | [1]; 2.5 µM 0 | RIOK1; 2.5 µM 0 | RIPK1; 2.5 µM 0 | RIPK2; 2.5 µM 0 | ROR2; 2.5 µM 0 | RPS6KA1; 2.5 µM 0 | SPHK1; 2.5 µM 0 | SRC; 2.5 µM 0 | STK24; 2.5 µM 0

FC(F)(F)c1ccc(CNc2ccc(Cc3c[nH]c4ncc(Cl)cc34)cn2)cn1 [Pexidartinib]
inactive: RET; 10 µM 0 | [1]; 10 µM 0 | RIOK1; 10 µM 0 | RIPK1; 10 µM 0 | RIPK2; 10 µM 0 | ROR2; 10 µM 0 | RPS6KA1; 10 µM 0 | SPHK1; 10 µM 0 | SRC; 10 µM 0 | STK24; 10 µM 0

N=C(N)NC(=O)c1nc(Cl)c(N)nc1N [Amiloride hydrochloride dihydrate]
inactive: RET; 10 µM 0 | [1]; 10 µM 0 | RIOK1; 10 µM 0 | RIPK1; 10 µM 0 | RIPK2; 10 µM 0 | ROR2; 10 µM 0 | RPS6KA1; 10 µM 0 | SPHK1; 10 µM 0 | SRC; 10 µM 0 | STK24; 10 µM 0

CNC(=O)c1ccccc1Nc1cc(Nc2ccc(N3CCOCC3)cc2OC)ncc1C(F)(F)F [PND-1186 (hydrochloride)]
inactive: RET; 10 µM 0 | [1]; 10 µM 0 | RIOK1; 10 µM 0 | RIPK1; 10 µM 0 | RIPK2; 10 µM 0 | ROR2; 10 µM 0 | RPS6KA1; 10 µM 0 | SPHK1; 10 µM 0 | SRC; 10 µM 0 | STK24; 10 µM 0

Cc1[nH]c(/C=C2\C(=O)Nc3ccc(F)cc32)c(C)c1C(=O)NCCN1CCCC1 [Toceranib]
inactive: RET; 2 µM 0 | [1]; 2 µM 0 | RIOK1; 2 µM 0 | RIPK1; 2 µM 0 | RIPK2; 2 µM 0 | ROR2; 2 µM 0 | RPS6KA1; 2 µM 0 | SPHK1; 2 µM 0 | SRC; 2 µM 0 | STK24; 2 µM 0

CCc1nc(C(N)=O)c(Nc2ccc(N3CCC(N4CCN(C)CC4)CC3)c(OC)c2)nc1NC1CCOCC1 [Gilteritinib hemifumarate]
inactive: RET; 2 µM 0 | [1]; 2 µM 0 | RIOK1; 2 µM 0 | RIPK1; 2 µM 0 | RIPK2; 2 µM 0 | ROR2; 2 µM 0 | RPS6KA1; 2 µM 0 | SPHK1; 2 µM 0 | SRC; 2 µM 0 | STK24; 2 µM 0

COc1cc2c(Oc3ccc4[nH]c(C)cc4c3F)ncnc2cc1OCCCN1CCCC1 [Cediranib]
inactive: RET; 2.5 µM 0 | [1]; 2.5 µM 0 | RIOK1; 2.5 µM 0 | RIPK1; 2.5 µM 0 | RIPK2; 2.5 µM 0 | ROR2; 2.5 µM 0 | RPS6KA1; 2.5 µM 0 | SPHK1; 2.5 µM 0 | SRC; 2.5 µM 0 | STK24; 2.5 µM 0

CNC(=O)c1cc(Oc2ccc(NC(=O)Nc3ccc(Cl)c(C(F)(F)F)c3)c(F)c2)ccn1 [Regorafenib]
inactive: RET; 2.5 µM 0 | [1]; 2.5 µM 0 | RIOK1; 2.5 µM 0 | RIPK1; 2.5 µM 0 | RIPK2; 2.5 µM 0 | ROR2; 2.5 µM 0 | RPS6KA1; 2.5 µM 0 | SPHK1; 2.5 µM 0 | SRC; 2.5 µM 0 | STK24; 2.5 µM 0

C/C=C1\C(=O)C[C@H]2[C@@H]3CCC4=CC(=O)CC[C@]4(C)[C@H]3CC[C@]12C [Guggulsterone]
inactive: RET; 10 µM 0 | [1]; 10 µM 0 | RIOK1; 10 µM 0 | RIPK1; 10 µM 0 | RIPK2; 10 µM 0 | ROR2; 10 µM 0 | RPS6KA1; 10 µM 0 | SPHK1; 10 µM 0 | SRC; 10 µM 0 | STK24; 10 µM 0

CN1CCCN(C(=O)c2cccc(-c3ccc(/C=C4/C(=O)Nc5ccc(Cl)cc54)o3)c2)CC1 [CX-6258 (hydrochloride hydrate)]
inactive: RET; 2.5 µM 0 | [1]; 2.5 µM 0 | RIOK1; 2.5 µM 0 | RIPK1; 2.5 µM 0 | RIPK2; 2.5 µM 0 | ROR2; 2.5 µM 0 | RPS6KA1; 2.5 µM 0 | SPHK1; 2.5 µM 0 | SRC; 2.5 µM 0 | STK24; 2.5 µM 0

COc1ccnc(C[S+]([O-])c2nc3cc(-n4cccc4)ccc3[nH]2)c1C (stereo not given) [Ilaprazole (sodium)]
inactive: RET; 10 µM 0 | [1]; 10 µM 0 | RIOK1; 10 µM 0 | RIPK1; 10 µM 0 | RIPK2; 10 µM 0 | ROR2; 10 µM 0 | RPS6KA1; 10 µM 0 | SPHK1; 10 µM 0 | SRC; 10 µM 0 | STK24; 10 µM 0

Clc1ccc(C2(c3ccc(-c4cn[nH]c4)cc3)CCNCC2)cc1
inactive: RET; 10 µM 0 | [1]; 10 µM 0 | RIOK1; 10 µM 0 | RIPK1; 10 µM 0 | RIPK2; 10 µM 0 | ROR2; 10 µM 0 | RPS6KA1; 10 µM 0 | SPHK1; 10 µM 0 | SRC; 10 µM 0 | STK24; 10 µM 0

Cc1ccc(NC(=O)c2ccc(CN3CCN(C)CC3)cc2)cc1Nc1nc(-c2cccnc2)cs1 [Masitinib]
inactive: RET; 2.5 µM 0 | [1]; 2.5 µM 0 | RIOK1; 2.5 µM 0 | RIPK1; 2.5 µM 0 | RIPK2; 2.5 µM 0 | ROR2; 2.5 µM 0 | RPS6KA1; 2.5 µM 0 | SPHK1; 2.5 µM 0 | SRC; 2.5 µM 0 | STK24; 2.5 µM 0

O=C(c1nn(-c2ccc(CN3CCOCC3)cc2)c2c1CS(=O)(=O)c1c(F)cccc1-2)N1CCOCC1
inactive: RET; 10 µM 0 | [1]; 10 µM 0 | RIOK1; 10 µM 0 | RIPK1; 10 µM 0 | RIPK2; 10 µM 0 | ROR2; 10 µM 0 | RPS6KA1; 10 µM 0 | SPHK1; 10 µM 0 | SRC; 10 µM 0 | STK24; 10 µM 0

C=CC(=O)Nc1cc(Nc2nccc(-c3cn(C)c4ccccc34)n2)c(OC)cc1N(C)CCN(C)C [Osimertinib (dimesylate)]
inactive: RET; 2.5 µM 0 | [1]; 2.5 µM 0 | RIOK1; 2.5 µM 0 | RIPK1; 2.5 µM 0 | RIPK2; 2.5 µM 0 | ROR2; 2.5 µM 0 | RPS6KA1; 2.5 µM 0 | SPHK1; 2.5 µM 0 | SRC; 2.5 µM 0 | STK24; 2.5 µM 0

C/C=C1\C(=O)C[C@H]2[C@@H]3CCC4=CC(=O)CC[C@]4(C)[C@H]3CC[C@]12C [(Z)-Guggulsterone]
inactive: RET; 10 µM 0 | [1]; 10 µM 0 | RIOK1; 10 µM 0 | RIPK1; 10 µM 0 | RIPK2; 10 µM 0 | ROR2; 10 µM 0 | RPS6KA1; 10 µM 0 | SPHK1; 10 µM 0 | SRC; 10 µM 0 | STK24; 10 µM 0

Reference: the supplement of paper PMC12823440, “Inhibitors supercharge kinase turnover through native proteolytic circuits” (Nature, 2025)
